Source: PubChem BioAssay AID504467 (National Center for Advancing Translational Sciences (NCATS), 2011)
About 7,700 (2.3%) of roughly 330,000 compounds were called active. The shares of active, inactive and inconclusive entries below differ from those in the screen. Calls follow the shape of the dose curve; as a rule, active = well fitted inhibition curve with a large enough effect; inconclusive = small, poorly fitted or top-dose-only effect, or effect the other way; inactive = flat fitted curve, though single readings scatter. Potencies beside an inconclusive call are fits to weak or partial responses and may not hold up.

Assay: qHTS screen for small molecules that inhibit ELG1-dependent DNA repair in human embryonic kidney (HEK293T) cells expressing luciferase-tagged ELG1; also: nearly all actives have a fitted effect of over 55% in size
Conditions: HEK293T ELG1-luciferase reporter, luminescence, 16 h, DNA damage induced by 5-fluorouridine; series mostly up to 46.1 µM
Procedure, shortened: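 Reporter activity after DNA damage by 5-fluorouridine is monitored. Compound-treated cells incubate 16 hr at 37 °C, then ONE-Glo is added for 30 min before luminescence reading.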
Potency is read from the fitted curve at half-maximal effect.

Row | SMILES | Potency
1 | COc1cccc(C(=O)N2CCn3c2nc2ccccc23)c1 | inconclusive: 20.6 µM [activator, partial curve]
2 | CC1=CC(c2ccccc2)=NS(=O)(=O)N1 | inconclusive: 25.9 µM [activator, partial curve, poor fit]
3 | CN(C)c1nnnn1-c1ccc(Oc2ncc(C(F)(F)F)cc2Cl)cc1 | inconclusive: 23.1 µM [inhibitor, single point]
4 | COC(=O)c1ccc(C2N=C(c3cccs3)CC(c3ccccc3O)N2)cc1 (stereo unspecified) | inconclusive: 29.1 µM [inhibitor, single point]
5 | C[C@H](CO)N1C[C@H](C)[C@@H](CN(C)S(=O)(=O)c2ccc(F)cc2)Oc2ccc(NC(=O)Nc3ccc(C(F)(F)F)cc3)cc2C1=O | active: 20.6 µM
6 | O=C(CSc1nc(N2CCCCC2)nc(N2CCCCC2)n1)N1CCN(c2ccccc2)CC1 | inconclusive: 23.1 µM [inhibitor, single point]
7 | Cc1nn(Cc2c(Cl)cccc2Cl)c(C)c1NC(=O)c1sc2ccccc2c1Cl | inactive
8 | CC(=O)c1c(C)[nH]c(C(=O)Nc2ccc(C)cc2Br)c1C | inconclusive: 5.8 µM [activator, partial curve]
9 | CCONC(=O)Nc1ccccc1[N+](=O)[O-] | inconclusive: 4.11 µM [inhibitor, partial curve, poor fit]
10 | CCCCNc1n[n+](C)c(-c2cccc(C)c2)s1 | inactive
11 | O=S(=O)(Cc1cc(NCc2ccccc2)nc(-c2ccccn2)n1)c1ccccc1 | inconclusive: 20.6 µM [inhibitor, single point]
12 | CC1CCCN(c2nc3c(c(=O)[nH]c(=O)n3C)n2CCSc2nc3ccccc3o2)C1 (stereo unspecified) | inactive
13 | CCN(CC)C(=O)c1c([N+](=O)[O-])c(C(C)(C)C)nn1C | inactive
14 | C=CCn1c(O)c(C2=c3ccccc3=NC2=O)sc1=Nc1ccc(O)cc1 | inactive
15 | CCC(=NCCc1c(C)[nH]c2ccc(OC(F)(F)F)cc12)C1=C(O)CC(c2ccccc2)CC1=O (stereo unspecified) | inconclusive: 8.2 µM [inhibitor, partial curve]
16 | Cc1cc(C(=O)Nc2ccc(Br)cc2)c2ccccc2n1 | inactive
17 | CC1C(=O)N2CCCc3cc(NC(=O)C(=O)NCCc4ccccc4)cc1c32 (stereo unspecified) | inconclusive: 13 µM [activator, partial curve]
18 | Cc1cc(C(=O)N/N=C/c2cc(Br)cc(Br)c2OC(=O)c2ccccc2)n[nH]1 | inconclusive: 8.2 µM [inhibitor, partial curve]
19 | Clc1ccc(C2Nc3cccc4cccc(c34)N2)cc1Cl | inactive
20 | COc1ccc(Nc2nc3ccc(C)cc3n3cnnc23)cc1Cl | inconclusive: 32.6 µM [inhibitor, single point]
21 | O=C(CCC(=O)N1CCOc2ccccc21)NCCc1ccccc1 | inconclusive: 6.51 µM [inhibitor, single point]
22 | Cc1ccc(C2C(C(=O)c3cccs3)=C(O)C(=O)N2c2ccc(S(N)(=O)=O)cc2)cc1 (stereo unspecified) | inconclusive: 29.1 µM [activator, partial curve, poor fit]
23 | O=C(CCc1c[nH]c2ccccc12)NCCc1ccc(Cl)cc1 | inactive

Row | SMILES | Potency
24 | CC(=O)Nc1ccc(-c2csc(Nc3cc(C)ccn3)n2)cc1 | inconclusive: 14.6 µM [inhibitor, partial curve]
25 | CCc1cccc(NC(=O)C2CCCN(c3ncnc4c3nc3n4CCCCC3)C2)c1 (stereo unspecified) | active: 18.3 µM
26 | Cc1cccc(NC(=O)c2cccc(S(=O)(=O)Nc3ccccc3C(=O)O)c2)c1 | inconclusive: 0.891 µM [activator, full curve, poor fit]
27 | CC(C)c1ccc(/C=C2\SC(=O)N(CC(=O)NC3C=CS(=O)(=O)C3)C2=O)cc1 (stereo unspecified) | inconclusive: 14.6 µM [activator, partial curve]
28 | Cc1ccc2nc(NC(=O)c3ccco3)sc2c1 | inconclusive: 0.146 µM [activator, full curve, poor fit]
29 | CCN(CC)S(=O)(=O)c1ccc(N2CCCC2)c(NC(=O)Cc2cc(OC)c(OC)c(OC)c2)c1 | inactive
30 | CN(C)S(=O)(=O)c1ccc(Cl)c(NC(=O)COC(=O)C2CCCO2)c1 (stereo unspecified) | inactive
31 | CC(C)OC(=O)c1sc2nc3c(cc2c1N)C(=O)CCC3 | inconclusive: 10.3 µM [activator, partial curve]
32 | CC1=NN(Cc2ccccc2)C(=O)C1C(c1ccc(Cl)cc1)C(C#N)C#N (stereo unspecified) | inconclusive: 23.1 µM [activator, single point]
33 | CC(=O)c1sc(NC(=O)c2ccccc2)nc1-c1ccccc1 | inconclusive: 2.06 µM [activator, partial curve]
34 | O=C(c1ccco1)N1CCN(C/C=C/c2ccccc2)CC1 | inactive
35 | O=C(CN1C(=O)c2ccccc2S1(=O)=O)NC1CCCC1 | inconclusive: 16.4 µM [activator, single point]
36 | COc1cc(C2c3[nH]c4ccccc4c3C[C@H]3C(=O)N(C4CC4)CC(=O)N23)ccc1OC(C)C (stereo partly specified) | inconclusive: 23.1 µM [inhibitor, single point]
37 | COC(=O)c1ccccc1S(=O)(=O)NNC(=O)Nc1ccccc1 | inconclusive: 16.4 µM [activator, partial curve]
38 | Cc1csc(NC(=O)COc2ccc3c(c2)CCC3)n1 | inconclusive: 6.51 µM [activator, partial curve]
39 | O=C1ON=C(c2ccc(Cl)cc2)/C1=C/c1ccc(O)cc1 | inconclusive: 29.1 µM [activator, single point]
40 | Cc1ccccc1OCC(=O)Nn1c(COc2ccccc2)nc2ccccc2c1=O | inactive
41 | COCCN(C(=O)c1cccc(N2C(=O)CCC2=O)c1)c1nc(-c2ccc([N+](=O)[O-])cc2)cs1 | active: 5.8 µM
42 | COc1ccc(OC)c(NC(=O)CSc2nccn2Cc2ccco2)c1 | inactive
43 | COc1ccc(C(=O)NCCc2ccccc2F)cc1OC1CCN(C(C)=O)CC1 | inactive
44 | O=S(=O)(/N=C/c1c(O)ccc2ccccc12)c1ccccc1 | inactive
45 | Cc1cc2c([nH]c3ccccc32)c(C)n1 | inactive
46 | CC(C)(C)OC(=O)C[C@H]1C/C=C\C[C@H](CC(=O)NCCO)C(=O)NC[C@H](c2ccccc2)OC1=O | inconclusive: 23.1 µM [activator, single point]

From no. 35 as far as 36, as listed above:
Row | SMILES | Potency
35 | O=C(CN1C(=O)c2ccccc2S1(=O)=O)NC1CCCC1 | inconclusive: 16.4 µM [activator, single point]
36 | COc1cc(C2c3[nH]c4ccccc4c3C[C@H]3C(=O)N(C4CC4)CC(=O)N23)ccc1OC(C)C (stereo partly specified) | inconclusive: 23.1 µM [inhibitor, single point]
